Measured values: publication PMC10112905

The chains behind the UniProt entries cited, without tags or fusion partners. Where a name states a change or a piece, a line headed by the entry shows the natural chain unless it says otherwise.
UniProt P0C0S6: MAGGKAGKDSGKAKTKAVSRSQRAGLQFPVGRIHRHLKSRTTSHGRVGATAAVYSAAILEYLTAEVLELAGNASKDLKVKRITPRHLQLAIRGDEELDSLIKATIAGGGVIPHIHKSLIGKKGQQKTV
UniProt O35685: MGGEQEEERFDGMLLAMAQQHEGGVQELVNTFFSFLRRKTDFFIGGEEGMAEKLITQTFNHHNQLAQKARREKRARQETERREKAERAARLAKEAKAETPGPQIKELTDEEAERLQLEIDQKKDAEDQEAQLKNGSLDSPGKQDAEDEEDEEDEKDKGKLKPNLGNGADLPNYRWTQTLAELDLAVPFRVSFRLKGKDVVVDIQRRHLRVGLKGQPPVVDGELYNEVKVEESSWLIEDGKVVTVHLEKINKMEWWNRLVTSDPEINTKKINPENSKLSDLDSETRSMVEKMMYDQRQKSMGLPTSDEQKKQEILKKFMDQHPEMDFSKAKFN
UniProt Q99KJ8: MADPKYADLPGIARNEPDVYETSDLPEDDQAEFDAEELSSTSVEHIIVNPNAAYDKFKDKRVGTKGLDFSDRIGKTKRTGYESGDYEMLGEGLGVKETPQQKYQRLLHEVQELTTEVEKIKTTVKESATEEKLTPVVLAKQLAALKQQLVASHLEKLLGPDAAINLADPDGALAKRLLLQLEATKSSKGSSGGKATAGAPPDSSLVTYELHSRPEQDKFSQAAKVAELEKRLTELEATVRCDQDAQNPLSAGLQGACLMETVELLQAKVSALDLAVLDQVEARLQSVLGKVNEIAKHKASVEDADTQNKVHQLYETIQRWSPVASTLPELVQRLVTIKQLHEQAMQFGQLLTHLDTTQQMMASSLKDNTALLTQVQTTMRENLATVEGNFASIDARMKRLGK

T1: spastin (mouse (endogenous in testis)) (UniProt Q9QYY8)
T1 sequence: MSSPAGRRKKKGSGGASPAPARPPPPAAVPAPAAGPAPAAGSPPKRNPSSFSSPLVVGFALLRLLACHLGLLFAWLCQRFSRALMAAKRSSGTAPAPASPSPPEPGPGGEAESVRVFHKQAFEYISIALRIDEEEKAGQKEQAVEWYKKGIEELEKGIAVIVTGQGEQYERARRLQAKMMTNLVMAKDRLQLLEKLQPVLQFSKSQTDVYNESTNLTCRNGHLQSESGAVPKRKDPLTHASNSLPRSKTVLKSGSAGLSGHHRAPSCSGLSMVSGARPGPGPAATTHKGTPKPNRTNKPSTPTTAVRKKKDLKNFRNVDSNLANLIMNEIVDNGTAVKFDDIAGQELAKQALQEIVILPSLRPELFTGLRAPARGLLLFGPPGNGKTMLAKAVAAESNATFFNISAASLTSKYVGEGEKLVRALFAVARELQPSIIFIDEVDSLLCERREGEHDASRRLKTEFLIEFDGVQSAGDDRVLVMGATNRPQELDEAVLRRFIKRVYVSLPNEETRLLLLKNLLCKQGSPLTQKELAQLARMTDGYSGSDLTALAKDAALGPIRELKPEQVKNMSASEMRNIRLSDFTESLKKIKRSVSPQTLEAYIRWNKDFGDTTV

B1: SEPT2 (protein, UniProt P42208 1-361)
chain: MSKQQPTQFINPETPGYVGFANLPNQVHRKSVKKGFEFTLMVVGESGLGKSTLINSLFLTDLYPERIIPGAAEKIERTVQIEASTVEIEERGVKLRLTVVDTPGYGDAINCRDCFKTIISYIDEQFERYLHDESGLNRRHIIDNRVHCCFYFISPFGHGLKPLDVAFMKAIHNKVNIVPVIAKADTLTLKERERLKKRILDEIEEHSIKIYHLPDAESDEDEDFKEQTRLLKASIPFSVVGSNQLIEAKGKKVRGRLYPWGVVEVENPEHNDFLKLRTMLITHMQDLQEVTQDLHYENFRSERLKRGGRKVENEDMNKDQILLEKEAELRRMQEMIARMQAQMQMQMQGGDSDSGALGQHV

target: T1, spastin (mouse (endogenous in testis)); experiment: affinity purification with mass spectrometry; endogenous SPAST precipitated from pre-cleared wild-type mouse testis lysate (1% NP-40 in PBS, protease inhibitors; 4 mg lysate) with SPAST antibody (Abcam ab31850, 5 ug) covalently coupled to AminoLink Plus resin, overnight at 4°C; control: antibody with non-amine reactive control resin; eluate digested with trypsin, LC-MS/MS; n=3

Row | binding | Molecule
1 | binds | histone H2A.Z (from UniProt P0C0S6 1-128)
2 | binds | NUDC (from UniProt O35685 1-332)
3 | binds | DCTN2 (from UniProt Q99KJ8 1-402)
4 | binds | B1

Results are given in words; binding and its absence hold for the method and conditions named. Binding seen in cells or lysates may run through a third protein. Here binding means that the protein was enriched with, or labelled near, the bait; the list need not be complete.
